Assay results reported in PubChem BioAssay AID2549 (National Center for Advancing Translational Sciences (NCATS), 2010).
The campaign covered roughly 240,000 compounds. About 1,300 (0.54%) were called active. The shares of active, inactive and inconclusive entries below differ from those in the screen. The call rests on the fitted dose curve; in most records, active means well fitted inhibition curve with a large enough effect; inconclusive means small, poorly fitted or top-dose-only effect; inactive means flat fitted curve, though single readings scatter. Where the call is inconclusive, the potency comes from a doubtful curve fit.

Amino acid sequences for entries named in this document (tags omitted). A change or cut given only in a name is not applied to a line headed by its entry.
UniProt P46063: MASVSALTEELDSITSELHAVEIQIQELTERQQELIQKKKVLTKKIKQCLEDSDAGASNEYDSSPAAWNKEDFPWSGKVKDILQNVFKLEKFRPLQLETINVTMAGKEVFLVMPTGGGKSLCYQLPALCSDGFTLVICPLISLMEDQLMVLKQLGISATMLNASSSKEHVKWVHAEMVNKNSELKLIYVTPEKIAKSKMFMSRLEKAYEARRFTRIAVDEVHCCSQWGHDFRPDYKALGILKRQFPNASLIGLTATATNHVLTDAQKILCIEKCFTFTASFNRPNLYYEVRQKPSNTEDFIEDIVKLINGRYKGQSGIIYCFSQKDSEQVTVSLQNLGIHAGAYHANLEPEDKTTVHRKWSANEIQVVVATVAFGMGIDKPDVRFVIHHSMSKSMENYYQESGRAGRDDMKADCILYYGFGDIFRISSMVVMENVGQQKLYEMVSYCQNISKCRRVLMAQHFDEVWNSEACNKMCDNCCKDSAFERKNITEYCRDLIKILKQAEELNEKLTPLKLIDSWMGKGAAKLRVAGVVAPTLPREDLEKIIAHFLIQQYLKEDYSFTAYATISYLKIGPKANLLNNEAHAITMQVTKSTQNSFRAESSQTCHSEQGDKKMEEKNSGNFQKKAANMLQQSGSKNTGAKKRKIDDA

Molecular target: ATP-dependent DNA helicase Q1 (Homo sapiens) (UniProt P46063)
Test: qHTS Assay for Inhibitors of RecQ-Like Dna Helicase 1 (RECQ1); further: nearly all actives have a fitted effect of over 30% in size;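 on activity, negative = inhibition: plate controls were vehicle for no effect and no enzyme for full effect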
Conditions: RECQ1 DNA unwinding, red fluorescence kinetic read; activity, negative = inhibition: at 57.3 µM (top of the series); series mostly up to 57.3 µM
Outline: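 RECQ1T1 50 nM; forked duplex (20 bp + 30-nt ss tails) 200 nM, ATP 2 mM final; pH 8.0, 2 mM MgCl2, 2.5 ug/ml poly(dI-dC); 15 min compound preincubation; discontinuous kinetic read over 2 h at RT.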
Potency means the concentration at half of the fitted maximal effect.

**Q.** For O=C(Nc1ccc2nc(-c3ccco3)c(-c3ccco3)nc2c1)N1CCCCCC1, which Potency is on record?
**A.** active: 5.62 µM

**Q.** With Cc1c(N2C(=O)/C(=C\c3ccc(N(C)C)cc3)N(C)C2=S)c(=O)n(-c2ccccc2)n1C as the compound, how does the Potency read?
**A.** active: 28.2 µM

**Q.** For O=C(NNc1nc(-c2ccccc2)c2cc(Br)ccc2n1)c1ccc(S(=O)(=O)N2CCOCC2)cc1, which Potency is on record?
**A.** inconclusive: 1.26 µM [inhibitor, full curve]

**Q.** With COc1cc(/C=C2\C(=N)N3N=CSC3=NC2=O)cc(Br)c1OC(=O)c1ccco1 as the compound, how does the Potency read?
**A.** inactive

**Q.** With N#C/C(=C\c1c(N2CCCCC2)nc2ccccn2c1=O)S(=O)(=O)c1ccccc1 as the compound, how does the Potency read?
**A.** inconclusive: 20 µM [inhibitor, partial curve]

**Q.** Which Potency does the source give for Cc1ccc2nc(/C(C#N)=C\c3ccc([N+](=O)[O-])o3)[nH]c2c1 here?
**A.** inactive

**Q.** N#C/C(=C\c1ccc(-c2ccc([N+](=O)[O-])cc2)o1)C(=O)Nc1nc(-c2cccs2)cs1 was tested. Which Potency did it give?
**A.** inconclusive: 15.8 µM [inhibitor, partial curve]

**Q.** With O=C1CCCN1CN(C(=O)c1ccccc1)c1ccc(F)cc1 as the compound, how does the Potency read?
**A.** inconclusive: 4.47 µM [inhibitor, partial curve, poor fit]

**Q.** CCC(=O)C(C(=O)OC)[C@H](CCc1ccccc1)NC(=O)OC (stereo not given in full) was tested. Which Potency did it give?
**A.** inconclusive: 8.91 µM [inhibitor, single point]

**Q.** For CCOC(=O)C(C(C)=O)c1c(Br)c(O)c(O)c2c(C(=O)c3ccc(C)cc3)coc12 (stereo not given), which Potency is on record?
**A.** inconclusive: 39.8 µM [inhibitor, partial curve, poor fit]

**Q.** For O=C(c1ccccc1)[C@@H]1[C@@H]2C(=O)N(c3ccc(F)cc3)C(=O)[C@@H]2C2CCCN21 (stereo not given in full), which Potency is on record?
**A.** inconclusive: 28.2 µM [inhibitor, single point]

**Q.** With Cc1ccc(NC(=O)COC(=O)CNC(=O)c2cccc([N+](=O)[O-])c2)cc1S(=O)(=O)N1CCCCCC1 as the compound, how does the Potency read?
**A.** active: 31.6 µM

**Q.** With CS(=O)(=O)NCc1ccc(C(=O)NCc2ccccc2)cc1 as the compound, how does the Potency read?
**A.** inconclusive: 0.0891 µM [inhibitor, full curve, poor fit]

**Q.** With COc1ccccc1/C=N/NC(=O)CC(=O)NCc1ccccc1 as the compound, how does the Potency read?
**A.** inactive

**Q.** For O=C(O)CCc1ccc(-c2ccc(Br)cc2)n1CC(=O)O, which Potency is on record?
**A.** active: 31.6 µM

**Q.** Which Potency does the source give for Cc1cc(C)[n+](-c2ccc(C(C)C)cc2)c2[nH]c(=O)[nH]c(=O)c12 here?
**A.** inconclusive: 0.891 µM [inhibitor, single point]

**Q.** Which Potency does the source give for Cc1cc(C)nc(SC2c3cccc4cccc(c34)C2NS(=O)(=O)c2ccccc2)n1 (stereo not given) here?
**A.** inconclusive: 31.6 µM [inhibitor, partial curve]

**Q.** Cc1sc2ncnc(SCC(=O)NC(=O)NCc3ccco3)c2c1C was tested. Which Potency did it give?
**A.** inconclusive: 12.6 µM [inhibitor, partial curve]

**Q.** How did the Potency turn out when Nc1ncc(N=Nc2cc(C(=O)O)ccc2Cl)s1 was run?
**A.** inconclusive: 39.8 µM [inhibitor, single point]

**Q.** Which Potency does the source give for O=C(CC1C(=O)NCCN1Cc1ccc(F)cc1)NCCOc1cccnc1 (stereo not given) here?
**A.** inactive

**Q.** With CC(C)(C)c1ccc(CS(=O)CC(O)CO)cc1 (stereo not given) as the compound, how does the Potency read?
**A.** inconclusive: 0.794 µM [inhibitor, single point]

**Q.** Which Potency does the source give for Cc1cccc(-n2nc3c(c2NC(=O)c2ccc(Br)o2)CSC3)c1C here?
**A.** active: 35.5 µM

**Q.** Which Potency does the source give for CC(/C=C1\SC(=O)N(CC(=O)Nc2cccc(O)c2)C1=O)=C\c1ccccc1 here?
**A.** inconclusive: 0.282 µM [inhibitor, full curve]

**Q.** With COc1cc2c(cc1OC)-c1c(oc3cc(O)cc(O)c3c1=O)CO2 as the compound, how does the Potency read?
**A.** inconclusive: 31.6 µM [inhibitor, partial curve]

**Q.** Which Potency does the source give for CCN1CCN(C(=O)c2sc3ncnc(N4CCc5ccccc5C4)c3c2C)CC1 here?
**A.** active: 28.2 µM

**Q.** COC(=O)C1(C(=O)OC)CC2=CC(CC2=O)Cc2ccccc2[C@@H]1C[N+](=O)[O-] (stereo not given in full) was tested. Which Potency did it give?
**A.** inactive

**Q.** For O=C(Nc1nc(-c2ccco2)c(-c2ccco2)s1)C1CC(=O)N(c2ccc3c(c2)OCCO3)C1 (stereo not given), which Potency is on record?
**A.** active: 7.94 µM

**Q.** For Cc1cccc(CNc2cc(-c3ccoc3)ncn2)c1, which Potency is on record?
**A.** inconclusive: 39.8 µM [inhibitor, single point]

**Q.** Which Potency does the source give for Fc1ccccc1C1CC(c2ccco2)=Nc2ccccc2S1 (stereo not given) here?
**A.** inconclusive: 28.2 µM [inhibitor, partial curve]

**Q.** How did the Potency turn out when COC/C=C/C1=CC2=CC(=O)C(C)(OC(=O)C3CCCC3)C(=O)C2=CO1 (stereo not given) was run?
**A.** inconclusive: 28.2 µM [inhibitor, single point]

**Q.** For COc1ccc(-n2c(O)c(/C=N/NS(=O)(=O)c3ccc(C)cc3)c3ccccc3c2=O)cc1OC, which Potency is on record?
**A.** active: 10 µM

**Q.** Which Potency does the source give for Cc1ccc(Cl)cc1NC(=O)C(NS(=O)(=O)c1cccs1)c1ccccc1 (stereo not given) here?
**A.** inconclusive: 3.55 µM [inhibitor, partial curve]

**Q.** With CCCOc1ccc(/C=c2\sc3nc(-c4ccco4)nn3c2=O)cc1OCC as the compound, how does the activity, negative = inhibition read?
**A.** inconclusive: -35.5% [inhibitor]

**Q.** With O=C(O)CCCN1C(=O)/C(=C\c2ccc(-c3nc4ccccc4s3)o2)SC1=S as the compound, how does the Potency read?
**A.** inconclusive: 35.5 µM [inhibitor, single point]

**Q.** Which Potency does the source give for COc1ccc(CCN2C(=O)CC(Cc3ccc(C)cc3)C2=O)cc1OC (stereo not given) here?
**A.** inactive

**Q.** How did the Potency turn out when O=c1c(C(c2ccccc2)c2c(O)sc3ccccc3c2=O)c(O)sc2ccccc12 was run?
**A.** active: 31.6 µM

**Q.** For Cc1cc2cc(CNC(=O)c3ccc(Br)o3)ccc2n1C, which Potency is on record?
**A.** inconclusive: 39.8 µM [inhibitor, single point]

**Q.** Which Potency does the source give for Cc1nnc(SCC(=O)Nc2nc(-c3ccccc3)cs2)n1N here?
**A.** inactive

**Q.** For Cn1nnnc1SCC(=O)c1ccco1, which Potency is on record?
**A.** inactive

**Q.** With Cn1c(-c2ccc(Br)cc2)cnc1NCc1cccnc1 as the compound, how does the Potency read?
**A.** inactive

**Q.** How did the Potency turn out when Cc1nc(/N=C(\N)Nc2ccccc2)nc2ccccc12 was run?
**A.** inconclusive: 7.08 µM [inhibitor, single point]

**Q.** Which Potency does the source give for CC(/C=C1\SC(=S)N(NS(=O)(=O)c2ccc(C)cc2)C1=O)=C\c1ccccc1 here?
**A.** inconclusive: 39.8 µM [inhibitor, single point]

**Q.** With O=Cc1ccccc1OCc1nnsc1Cl as the compound, how does the Potency read?
**A.** inconclusive: 3.98 µM [inhibitor, partial curve]

**Q.** Which Potency does the source give for C[C@@](Cc1ccccc1)(NC(=O)CN)c1ccccc1 here?
**A.** inconclusive: 2.82 µM [inhibitor, partial curve, poor fit]

**Q.** How did the Potency turn out when COc1ccc(NC(=O)COC(=O)/C=C/C(=O)OCC(=O)Nc2ccc(OC)c(Cl)c2)cc1Cl was run?
**A.** inactive

**Q.** With Cc1ccc(C(C)C)c(OCc2nnc(SCC(=O)Nc3nccs3)n2C)c1 as the compound, how does the Potency read?
**A.** inconclusive: 12.6 µM [inhibitor, partial curve]

**Q.** With COc1ccc(-c2nc3cnc(N4CCNCC4)nc3n(Cc3cccs3)c2=O)cc1 as the compound, how does the Potency read?
**A.** inactive

**Q.** COc1cccc2sc(NNC(=O)c3nc4ccccc4s3)nc12 was tested. Which Potency did it give?
**A.** inconclusive: 0.199 µM [inhibitor, full curve, poor fit]

**Q.** How did the Potency turn out when O=C(Cc1ccc2cccnc2c1)c1ccc(O)cc1O was run?
**A.** inconclusive: 1 µM [inhibitor, full curve]

**Q.** Which Potency does the source give for COCCCNC(=O)C(C#N)c1nc2ccccc2nc1N1CCCC1 (stereo not given) here?
**A.** inconclusive: 1.78 µM [inhibitor, full curve, poor fit]

**Q.** For CCC(=O)Nc1cccc(C(=O)/C=C/c2cccs2)c1, which Potency is on record?
**A.** inconclusive: 14.1 µM [inhibitor, partial curve, poor fit]

**Q.** Which Potency does the source give for COc1ccc(CC(=O)Nc2cccc(/C(C)=N/NC(=O)c3cccc([N+](=O)[O-])c3)c2)cc1 here?
**A.** inconclusive: 5.62 µM [inhibitor, full curve]

**Q.** CCOP(=O)(OCC)C(C#N)=C1SCN(c2ccc(Cl)cc2)CS1 was tested. Which Potency did it give?
**A.** inconclusive: 1.12 µM [inhibitor, full curve]

**Q.** Which Potency does the source give for O=C(CN1C2=NCCN2c2ccccc21)c1ccc(Br)cc1 here?
**A.** inconclusive: 0.501 µM [inhibitor, partial curve, poor fit]

**Q.** Which Potency does the source give for O=C(O)Cc1ccc(C(=O)CSc2ccccc2)s1 here?
**A.** inconclusive: 35.5 µM [inhibitor, single point]

**Q.** How did the Potency turn out when Cc1ccc(COc2ccc(Br)cc2/C=N/O)cc1 was run?
**A.** inconclusive: 35.5 µM [inhibitor, single point]

**Q.** For CCCCNC(=S)N/N=C/C1=CCC2CC1C2(C)C (stereo not given), which Potency is on record?
**A.** inconclusive: 5.62 µM [inhibitor, full curve]

**Q.** How did the Potency turn out when Cc1nc(C(=O)NCCC(C)C)sc1C1(C)CC(c2ccccc2)=NO1 (stereo not given) was run?
**A.** inconclusive: 39.8 µM [inhibitor, single point]

**Q.** For COc1ccccc1-c1ccc(/C=C2\C=CC(=O)O2)o1, which Potency is on record?
**A.** inconclusive: 22.4 µM [inhibitor, single point]

**Q.** Which Potency does the source give for O=C(c1ccc(OCCN2CCCCC2)cc1)c1c(-c2ccc(O)cc2)sc2cc(O)ccc12 here?
**A.** inconclusive: 28.2 µM [inhibitor, single point]

**Q.** For Cc1ccccc1N=C/C=C1\N(C)c2ccccc2C1(C)C, which Potency is on record?
**A.** inconclusive: 35.5 µM [inhibitor, single point]

**Q.** Cc1ccc(N=C2NC(=O)/C(=C/C=C/c3ccco3)S2)cc1C was tested. Which Potency did it give?
**A.** active: 22.4 µM

**Q.** For COc1ccc(C(=O)Oc2ccc3c(-c4ccc(OC)cc4)cc(=O)oc3c2)cc1, which Potency is on record?
**A.** inactive

**Q.** For Cc1cccc(C)c1OCC(O)Cn1c2ccccc2c2ccccc21 (stereo not given), which Potency is on record?
**A.** inactive

**Q.** Which Potency does the source give for CC(C)[C@H](NS(=O)(=O)c1ccc2c(c1)OCCO2)C(=O)OCC(=O)Nc1cc(Cl)ccc1Cl here?
**A.** active: 50.1 µM

**Q.** Which Potency does the source give for CCC(Sc1ncccc1C(=O)OC(C)C)C(=O)NCc1ccco1 (stereo not given) here?
**A.** inconclusive: 25.1 µM [inhibitor, partial curve]

**Q.** CCOC(=O)Nc1ccc(NS(=O)(=O)c2ccc(C)cc2)cc1 was tested. Which Potency did it give?
**A.** inconclusive: 0.0891 µM [inhibitor, full curve, poor fit]

**Q.** How did the Potency turn out when Nc1c(N2CCCC2)cc(Cl)c2nonc12 was run?
**A.** inconclusive: 39.8 µM [inhibitor, single point]

**Q.** With Cc1c(Cl)cccc1NS(=O)(=O)c1ccc2c(c1)C1C=CCC1C(c1ccc(C(=O)O)cc1)N2 (stereo not given) as the compound, how does the Potency read?
**A.** active: 28.2 µM

**Q.** With CC(=O)Nc1ccc2c(COC(=O)CC3Sc4ccccc4NC3=O)cc(=O)oc2c1 (stereo not given) as the compound, how does the Potency read?
**A.** inconclusive: 35.5 µM [inhibitor, single point]
